Data: article PMC10618255, “Cryo-EM structure of human O-GlcNAcylation enzyme pair OGT-OGA complex” (Nature Communications, 2023)
Where a chain is given by its changes, count along the chain named. Names and notes keep the numbering of the source. No constants are given. Whether binding was seen depends on the method and setting. For some of these results: Binding seen in cells or lysates may run through a third protein. Some binding calls cover weakened binding; strength is not graded here. For some of these results: Where a sequence is shown, tags or fusion partners need not be part of it. One block for each binder: values may come before it.

Tests used:
[1] = biological target: T1, Flag-OGA (human, pCS2) (human) (UniProt O60502); experiment: co-IP; 293FT cells co-transfected with pCS2-Myc-OGT WT or mutant and pCS2-Flag-OGA; lysate in TENT buffer (25 mM Tris pH 7.4, 150 mM NaCl, 0.5% TritonX100, 1 mM EDTA); anti-Myc and anti-Flag magnetic beads; western blot
T1 sequence: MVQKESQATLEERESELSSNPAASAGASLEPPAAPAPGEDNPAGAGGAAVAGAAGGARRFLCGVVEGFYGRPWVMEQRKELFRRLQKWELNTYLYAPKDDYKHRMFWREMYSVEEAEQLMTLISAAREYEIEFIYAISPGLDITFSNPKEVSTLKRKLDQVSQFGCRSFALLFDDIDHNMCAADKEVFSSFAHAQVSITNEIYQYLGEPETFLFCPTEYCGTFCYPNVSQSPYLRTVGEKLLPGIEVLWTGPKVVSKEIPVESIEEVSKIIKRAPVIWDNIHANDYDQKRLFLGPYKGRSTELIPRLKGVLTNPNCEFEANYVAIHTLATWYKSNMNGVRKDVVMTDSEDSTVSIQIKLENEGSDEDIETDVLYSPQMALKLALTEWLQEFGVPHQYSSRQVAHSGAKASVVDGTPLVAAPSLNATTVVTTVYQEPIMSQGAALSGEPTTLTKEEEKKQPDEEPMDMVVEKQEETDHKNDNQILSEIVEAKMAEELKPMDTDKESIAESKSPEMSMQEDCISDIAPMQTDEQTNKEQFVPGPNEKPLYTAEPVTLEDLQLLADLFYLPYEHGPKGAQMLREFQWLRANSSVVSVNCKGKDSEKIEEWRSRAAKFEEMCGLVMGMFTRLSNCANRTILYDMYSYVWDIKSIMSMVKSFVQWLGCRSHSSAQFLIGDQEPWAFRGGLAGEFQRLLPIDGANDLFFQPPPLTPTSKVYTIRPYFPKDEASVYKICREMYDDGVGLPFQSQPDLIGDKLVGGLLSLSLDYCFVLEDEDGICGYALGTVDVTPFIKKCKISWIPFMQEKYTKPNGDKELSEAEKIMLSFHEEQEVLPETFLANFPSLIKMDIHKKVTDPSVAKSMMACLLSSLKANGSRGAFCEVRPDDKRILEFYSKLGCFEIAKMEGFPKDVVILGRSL

[2] = biological target: human OGT 4A mutant (W208A/L209A/I211A/H212A) (human) (UniProt O15294); experiment: SEC + cryo-EM structure; OGT 4A mutant on size exclusion chromatography and in cryo-EM analysis (2D classification); both purified
[3] = biological target: T2, full-length human OGT (O-GlcNAc transferase), C-terminal His6 (human) (UniProt O15294); experiment: SEC; recombinant human OGT and OGA on size exclusion chromatography (Superose 6 10/300; 25 mM HEPES pH 7.4, 100 mM NaCl, 2 mM DTT, 0.05% NP40); both purified
T2 sequence: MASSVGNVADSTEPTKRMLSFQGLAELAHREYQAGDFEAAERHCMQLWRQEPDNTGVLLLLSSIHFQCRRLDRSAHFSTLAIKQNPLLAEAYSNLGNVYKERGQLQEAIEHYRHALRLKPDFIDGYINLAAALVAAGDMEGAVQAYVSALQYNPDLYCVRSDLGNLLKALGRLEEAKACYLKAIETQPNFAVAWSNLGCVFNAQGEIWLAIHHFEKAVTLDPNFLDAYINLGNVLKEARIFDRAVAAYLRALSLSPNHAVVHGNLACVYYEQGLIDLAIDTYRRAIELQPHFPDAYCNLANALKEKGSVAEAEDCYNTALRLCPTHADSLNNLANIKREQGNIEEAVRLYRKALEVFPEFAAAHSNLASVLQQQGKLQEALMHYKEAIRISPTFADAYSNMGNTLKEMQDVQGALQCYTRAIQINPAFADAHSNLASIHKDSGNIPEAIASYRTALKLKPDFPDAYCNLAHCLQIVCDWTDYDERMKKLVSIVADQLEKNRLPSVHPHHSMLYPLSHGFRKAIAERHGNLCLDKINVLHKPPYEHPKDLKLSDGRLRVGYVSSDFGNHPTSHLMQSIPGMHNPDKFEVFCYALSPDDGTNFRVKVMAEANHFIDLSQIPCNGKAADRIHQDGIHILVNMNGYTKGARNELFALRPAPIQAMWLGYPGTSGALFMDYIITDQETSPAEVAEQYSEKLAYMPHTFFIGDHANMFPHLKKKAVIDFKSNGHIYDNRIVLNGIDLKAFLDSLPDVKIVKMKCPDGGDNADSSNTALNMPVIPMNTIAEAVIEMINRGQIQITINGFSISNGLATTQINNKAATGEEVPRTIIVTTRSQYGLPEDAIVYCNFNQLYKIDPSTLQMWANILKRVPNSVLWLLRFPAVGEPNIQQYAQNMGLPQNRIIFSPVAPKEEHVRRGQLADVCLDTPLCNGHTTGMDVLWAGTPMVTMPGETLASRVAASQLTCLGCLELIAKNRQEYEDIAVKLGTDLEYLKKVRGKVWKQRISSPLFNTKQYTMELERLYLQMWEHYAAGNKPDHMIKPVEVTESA

[4] = biological target: T2, full-length human OGT (O-GlcNAc transferase), C-terminal His6 (human); experiment: cryo-EM structure; single-particle cryo-EM of the OGT-OGA complex co-expressed in E. coli and purified, incubated with 1 mg/ml UDP-GlcNAc on ice; conformation II at 3.92 Å; both purified

binding [1]: binds
B1: full-length human OGT (O-GlcNAc transferase), C-terminal His6 (enzyme, UniProt O15294 1-1046, looked up)
chain: T2 sequence
notes: human O-GlcNAc transferase (OGT), full length, UniProt O15294; Scissor-shaped homodimer by cryo-EM; also called OGT WT; His6-tagged OGT; source: E. coli BL21 (DE3), purified (Ni-NTA, Resource Q, Superose 6); for the OGT-OGA complex co-expressed with OGA in BL21 (DE3); not shown: His6, C-terminal, kept

binding [2]: no binding
B2: human OGT 4A mutant (W208A/L209A/I211A/H212A) (enzyme, UniProt O15294 1-1046)
chain: T2 sequence with W208A, L209A, I211A, H212A

binding [3]: binds | binding [4]: binds
B3: full-length human OGA (O-GlcNAcase) (enzyme, UniProt O60502 1-916)
chain: T1 sequence
